No constants are given. Whether binding was seen depends on the method and setting. Some results given as binding are weak or reduced against the parent protein; the word gives no strength.
Biological target: ATP-binding cassette transporter A1 (ABCA1), endogenous in THP-1-derived macrophages (human (endogenous in THP-1)) (UniProt O95477)
Test: nematic protein organisation technique (NPOT) with LC-MS/MS; 1 uM evodiamine mixed with 1 ug total THP-1 extract at 4 °C; heteroassemblies formed in a transitory pH gradient (5-10), isolated and identified by mass spectrometry; no heteroassembly forms without evodiamine

By UniProt entry, the sequences of proteins in these tests, tags left out.
UniProt O95477: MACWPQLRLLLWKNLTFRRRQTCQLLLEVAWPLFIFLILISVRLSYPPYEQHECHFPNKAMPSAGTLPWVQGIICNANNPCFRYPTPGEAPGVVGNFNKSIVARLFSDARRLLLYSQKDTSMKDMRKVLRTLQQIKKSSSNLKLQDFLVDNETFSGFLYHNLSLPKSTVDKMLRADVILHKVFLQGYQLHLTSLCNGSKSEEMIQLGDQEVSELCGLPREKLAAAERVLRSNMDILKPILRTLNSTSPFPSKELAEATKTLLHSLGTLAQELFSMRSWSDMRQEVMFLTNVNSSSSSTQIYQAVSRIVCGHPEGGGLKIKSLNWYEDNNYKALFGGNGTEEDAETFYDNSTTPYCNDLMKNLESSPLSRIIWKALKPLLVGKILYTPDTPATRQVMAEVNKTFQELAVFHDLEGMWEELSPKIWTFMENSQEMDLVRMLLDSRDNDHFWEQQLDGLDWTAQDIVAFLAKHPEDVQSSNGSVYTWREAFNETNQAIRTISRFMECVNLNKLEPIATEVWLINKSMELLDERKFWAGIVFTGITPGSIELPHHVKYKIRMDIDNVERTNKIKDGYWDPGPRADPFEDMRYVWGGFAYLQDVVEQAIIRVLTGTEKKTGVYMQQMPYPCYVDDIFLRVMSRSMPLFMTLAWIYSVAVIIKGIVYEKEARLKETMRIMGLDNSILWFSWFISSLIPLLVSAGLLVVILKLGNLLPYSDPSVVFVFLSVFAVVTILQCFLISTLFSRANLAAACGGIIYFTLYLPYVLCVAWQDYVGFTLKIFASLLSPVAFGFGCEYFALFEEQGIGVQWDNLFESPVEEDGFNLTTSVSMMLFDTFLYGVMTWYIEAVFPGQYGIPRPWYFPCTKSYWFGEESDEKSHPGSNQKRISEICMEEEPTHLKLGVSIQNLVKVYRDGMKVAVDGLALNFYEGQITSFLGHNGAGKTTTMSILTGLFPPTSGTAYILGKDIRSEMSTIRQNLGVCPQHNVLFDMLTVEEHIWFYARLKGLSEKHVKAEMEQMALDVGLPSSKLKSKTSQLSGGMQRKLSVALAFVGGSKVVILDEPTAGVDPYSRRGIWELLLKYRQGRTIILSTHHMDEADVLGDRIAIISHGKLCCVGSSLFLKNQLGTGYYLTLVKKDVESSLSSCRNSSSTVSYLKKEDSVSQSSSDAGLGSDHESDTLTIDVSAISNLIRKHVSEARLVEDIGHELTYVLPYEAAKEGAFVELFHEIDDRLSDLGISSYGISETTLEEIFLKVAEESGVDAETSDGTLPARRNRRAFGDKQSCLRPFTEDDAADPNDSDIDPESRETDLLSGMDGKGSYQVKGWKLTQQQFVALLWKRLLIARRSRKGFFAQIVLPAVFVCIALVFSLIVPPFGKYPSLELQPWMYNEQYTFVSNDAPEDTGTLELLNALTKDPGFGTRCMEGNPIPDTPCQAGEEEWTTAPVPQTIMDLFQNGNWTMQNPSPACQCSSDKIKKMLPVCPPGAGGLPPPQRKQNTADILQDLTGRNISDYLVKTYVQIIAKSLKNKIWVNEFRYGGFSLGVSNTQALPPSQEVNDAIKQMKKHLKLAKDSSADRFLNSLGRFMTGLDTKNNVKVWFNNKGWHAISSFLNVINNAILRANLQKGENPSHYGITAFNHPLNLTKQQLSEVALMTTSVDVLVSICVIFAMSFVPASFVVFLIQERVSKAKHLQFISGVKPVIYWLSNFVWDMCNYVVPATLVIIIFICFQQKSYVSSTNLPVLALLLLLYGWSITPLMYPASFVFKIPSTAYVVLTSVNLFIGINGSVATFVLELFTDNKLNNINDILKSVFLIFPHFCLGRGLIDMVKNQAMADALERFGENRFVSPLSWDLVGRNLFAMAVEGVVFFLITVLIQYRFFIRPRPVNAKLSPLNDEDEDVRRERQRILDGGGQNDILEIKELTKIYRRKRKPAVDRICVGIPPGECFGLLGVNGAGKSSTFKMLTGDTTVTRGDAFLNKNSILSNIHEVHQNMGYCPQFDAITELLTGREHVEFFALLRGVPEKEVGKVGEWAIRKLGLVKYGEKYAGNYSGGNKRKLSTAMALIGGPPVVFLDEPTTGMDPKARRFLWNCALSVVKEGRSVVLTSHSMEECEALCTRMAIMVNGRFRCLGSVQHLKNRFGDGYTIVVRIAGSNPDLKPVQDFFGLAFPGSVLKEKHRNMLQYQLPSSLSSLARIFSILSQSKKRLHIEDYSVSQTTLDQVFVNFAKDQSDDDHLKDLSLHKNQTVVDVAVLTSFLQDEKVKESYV

B1: retinal dehydrogenase 1 (ALDH1A1), endogenous in THP-1-derived macrophages (enzyme, UniProt P00352 1-501)
chain: MSSSGTPDLPVLLTDLKIQYTKIFINNEWHDSVSGKKFPVFNPATEEELCQVEEGDKEDVDKAVKAARQAFQIGSPWRTMDASERGRLLYKLADLIERDRLLLATMESMNGGKLYSNAYLNDLAGCIKTLRYCAGWADKIQGRTIPIDGNFFTYTRHEPIGVCGQIIPWNFPLVMLIWKIGPALSCGNTVVVKPAEQTPLTALHVASLIKEAGFPPGVVNIVPGYGPTAGAAISSHMDIDKVAFTGSTEVGKLIKEAAGKSNLKRVTLELGGKSPCIVLADADLDNAVEFAHHGVFYHQGQCCIAASRIFVEESIYDEFVRRSVERAKKYILGNPLTPGVTQGPQIDKEQYDKILDLIESGKKEGAKLECGGGPWGNKGYFVQPTVFSNVTDEMRIAKEEIFGPVQQIMKFKSLDDVIKRANNTFYGLSAGVFTKDIDKAITISSALQAGTVWVNCYGVVSAQCPFGGFKMSGNGRELGEYGFHEYTEVKTVTVKISQKNS
- binding: binds
